Data on eleven targets can be found in the supplement of paper PMC12819154, “High-throughput peptide-centric local stability assay extends protein–ligand identification to membrane proteins, tissues and bacteria” (Nature Structural & Molecular Biology, 2025).

Sequences of proteins named here, by UniProt entry; tags and fusion partners are left off. A change or cut given only in a name is not applied to a line headed by its entry.
UniProt Q92782, whole entry: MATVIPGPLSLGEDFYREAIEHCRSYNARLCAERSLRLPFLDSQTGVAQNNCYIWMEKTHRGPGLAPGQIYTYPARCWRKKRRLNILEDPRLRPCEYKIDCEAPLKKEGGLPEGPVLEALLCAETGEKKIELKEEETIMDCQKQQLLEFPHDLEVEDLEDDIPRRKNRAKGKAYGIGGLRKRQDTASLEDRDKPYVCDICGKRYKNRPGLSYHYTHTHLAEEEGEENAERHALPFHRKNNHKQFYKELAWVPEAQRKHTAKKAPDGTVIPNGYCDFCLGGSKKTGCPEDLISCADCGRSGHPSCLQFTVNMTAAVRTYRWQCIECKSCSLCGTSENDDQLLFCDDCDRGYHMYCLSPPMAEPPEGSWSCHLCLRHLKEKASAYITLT
UniProt Q93074, whole entry: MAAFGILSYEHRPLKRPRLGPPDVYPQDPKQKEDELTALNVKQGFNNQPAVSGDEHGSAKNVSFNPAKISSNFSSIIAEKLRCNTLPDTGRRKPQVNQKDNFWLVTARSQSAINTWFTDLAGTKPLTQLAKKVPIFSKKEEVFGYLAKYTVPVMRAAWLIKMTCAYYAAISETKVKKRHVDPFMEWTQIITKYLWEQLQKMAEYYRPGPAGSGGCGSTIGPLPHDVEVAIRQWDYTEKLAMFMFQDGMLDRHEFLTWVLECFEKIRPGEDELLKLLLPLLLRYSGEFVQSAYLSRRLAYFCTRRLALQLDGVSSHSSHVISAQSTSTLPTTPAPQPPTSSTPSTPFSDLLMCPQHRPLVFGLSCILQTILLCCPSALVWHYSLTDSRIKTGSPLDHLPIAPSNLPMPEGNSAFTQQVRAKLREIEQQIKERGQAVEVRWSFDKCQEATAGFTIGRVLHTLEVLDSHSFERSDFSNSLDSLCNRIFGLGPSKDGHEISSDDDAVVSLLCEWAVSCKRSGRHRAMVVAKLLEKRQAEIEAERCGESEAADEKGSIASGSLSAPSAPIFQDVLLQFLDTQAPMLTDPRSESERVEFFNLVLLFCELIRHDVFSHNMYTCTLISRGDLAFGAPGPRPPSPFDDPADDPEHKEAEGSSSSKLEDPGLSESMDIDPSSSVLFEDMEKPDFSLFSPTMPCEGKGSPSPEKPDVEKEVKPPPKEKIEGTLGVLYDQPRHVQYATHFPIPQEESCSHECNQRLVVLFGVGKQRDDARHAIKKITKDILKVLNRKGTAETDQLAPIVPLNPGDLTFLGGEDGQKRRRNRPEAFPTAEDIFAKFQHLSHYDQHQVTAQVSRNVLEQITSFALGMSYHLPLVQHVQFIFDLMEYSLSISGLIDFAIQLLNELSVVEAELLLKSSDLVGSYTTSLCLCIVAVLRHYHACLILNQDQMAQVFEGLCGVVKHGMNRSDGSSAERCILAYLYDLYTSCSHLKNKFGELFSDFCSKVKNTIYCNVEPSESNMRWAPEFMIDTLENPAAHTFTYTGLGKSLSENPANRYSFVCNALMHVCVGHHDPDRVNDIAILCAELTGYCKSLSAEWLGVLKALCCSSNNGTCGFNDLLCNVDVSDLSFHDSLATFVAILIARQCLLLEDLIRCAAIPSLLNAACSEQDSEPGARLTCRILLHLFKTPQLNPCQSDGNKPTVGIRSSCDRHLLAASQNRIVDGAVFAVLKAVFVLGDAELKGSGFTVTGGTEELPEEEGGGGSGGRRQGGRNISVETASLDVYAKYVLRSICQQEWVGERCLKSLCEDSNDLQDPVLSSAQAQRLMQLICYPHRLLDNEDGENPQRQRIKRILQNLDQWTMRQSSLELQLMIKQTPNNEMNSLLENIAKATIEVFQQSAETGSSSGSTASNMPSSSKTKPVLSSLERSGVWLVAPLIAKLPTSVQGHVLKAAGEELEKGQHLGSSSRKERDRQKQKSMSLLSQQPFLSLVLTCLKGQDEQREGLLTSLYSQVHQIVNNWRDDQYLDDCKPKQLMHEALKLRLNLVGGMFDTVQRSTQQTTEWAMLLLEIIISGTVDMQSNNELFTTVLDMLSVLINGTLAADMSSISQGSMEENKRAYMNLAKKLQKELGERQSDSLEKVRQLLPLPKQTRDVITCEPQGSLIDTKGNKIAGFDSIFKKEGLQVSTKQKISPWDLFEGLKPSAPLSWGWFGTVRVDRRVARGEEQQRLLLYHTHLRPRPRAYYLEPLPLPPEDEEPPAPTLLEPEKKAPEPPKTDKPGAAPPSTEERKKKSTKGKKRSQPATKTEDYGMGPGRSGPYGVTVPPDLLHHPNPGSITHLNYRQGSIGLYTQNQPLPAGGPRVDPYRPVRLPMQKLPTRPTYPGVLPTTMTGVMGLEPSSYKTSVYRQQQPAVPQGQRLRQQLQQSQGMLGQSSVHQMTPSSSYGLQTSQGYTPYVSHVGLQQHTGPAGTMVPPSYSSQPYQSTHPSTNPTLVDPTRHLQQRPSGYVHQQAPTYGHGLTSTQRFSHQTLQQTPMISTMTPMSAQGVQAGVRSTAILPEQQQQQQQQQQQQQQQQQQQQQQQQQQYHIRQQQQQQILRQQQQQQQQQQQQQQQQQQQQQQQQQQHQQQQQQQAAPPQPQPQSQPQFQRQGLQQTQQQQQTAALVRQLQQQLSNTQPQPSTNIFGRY
UniProt Q96EF0: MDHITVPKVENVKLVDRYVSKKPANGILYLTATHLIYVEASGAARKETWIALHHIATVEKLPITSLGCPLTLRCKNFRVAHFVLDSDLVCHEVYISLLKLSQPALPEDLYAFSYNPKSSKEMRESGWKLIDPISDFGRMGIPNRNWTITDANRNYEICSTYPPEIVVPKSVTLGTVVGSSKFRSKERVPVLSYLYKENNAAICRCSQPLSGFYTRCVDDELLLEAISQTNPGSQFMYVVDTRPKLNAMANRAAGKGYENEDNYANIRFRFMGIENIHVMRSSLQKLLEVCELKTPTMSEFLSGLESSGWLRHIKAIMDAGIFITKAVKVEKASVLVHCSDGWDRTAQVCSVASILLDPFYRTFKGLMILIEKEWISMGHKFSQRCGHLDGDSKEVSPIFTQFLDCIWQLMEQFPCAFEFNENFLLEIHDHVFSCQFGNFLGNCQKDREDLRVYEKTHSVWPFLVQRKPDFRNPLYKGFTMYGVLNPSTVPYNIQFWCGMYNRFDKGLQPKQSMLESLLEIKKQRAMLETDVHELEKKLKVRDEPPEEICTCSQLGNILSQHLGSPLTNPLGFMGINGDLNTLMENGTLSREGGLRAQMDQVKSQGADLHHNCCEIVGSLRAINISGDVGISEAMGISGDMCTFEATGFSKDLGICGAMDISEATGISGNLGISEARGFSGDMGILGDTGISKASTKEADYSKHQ
UniProt Q92989: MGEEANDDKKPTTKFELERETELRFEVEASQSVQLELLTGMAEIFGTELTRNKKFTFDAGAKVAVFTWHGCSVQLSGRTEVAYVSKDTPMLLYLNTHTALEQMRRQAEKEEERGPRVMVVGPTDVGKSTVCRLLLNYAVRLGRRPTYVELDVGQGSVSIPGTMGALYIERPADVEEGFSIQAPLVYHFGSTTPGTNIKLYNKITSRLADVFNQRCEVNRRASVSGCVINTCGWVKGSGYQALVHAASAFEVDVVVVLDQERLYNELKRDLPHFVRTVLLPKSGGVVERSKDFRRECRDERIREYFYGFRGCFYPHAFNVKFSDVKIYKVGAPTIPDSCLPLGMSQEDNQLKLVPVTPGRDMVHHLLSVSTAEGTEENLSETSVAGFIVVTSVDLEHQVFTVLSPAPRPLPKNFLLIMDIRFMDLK
UniProt Q96BM9: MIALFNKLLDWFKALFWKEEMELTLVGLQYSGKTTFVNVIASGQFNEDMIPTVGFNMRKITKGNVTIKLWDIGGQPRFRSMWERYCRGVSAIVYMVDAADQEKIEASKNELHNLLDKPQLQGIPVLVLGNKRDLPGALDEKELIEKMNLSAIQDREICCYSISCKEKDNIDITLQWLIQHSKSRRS
UniProt Q92797: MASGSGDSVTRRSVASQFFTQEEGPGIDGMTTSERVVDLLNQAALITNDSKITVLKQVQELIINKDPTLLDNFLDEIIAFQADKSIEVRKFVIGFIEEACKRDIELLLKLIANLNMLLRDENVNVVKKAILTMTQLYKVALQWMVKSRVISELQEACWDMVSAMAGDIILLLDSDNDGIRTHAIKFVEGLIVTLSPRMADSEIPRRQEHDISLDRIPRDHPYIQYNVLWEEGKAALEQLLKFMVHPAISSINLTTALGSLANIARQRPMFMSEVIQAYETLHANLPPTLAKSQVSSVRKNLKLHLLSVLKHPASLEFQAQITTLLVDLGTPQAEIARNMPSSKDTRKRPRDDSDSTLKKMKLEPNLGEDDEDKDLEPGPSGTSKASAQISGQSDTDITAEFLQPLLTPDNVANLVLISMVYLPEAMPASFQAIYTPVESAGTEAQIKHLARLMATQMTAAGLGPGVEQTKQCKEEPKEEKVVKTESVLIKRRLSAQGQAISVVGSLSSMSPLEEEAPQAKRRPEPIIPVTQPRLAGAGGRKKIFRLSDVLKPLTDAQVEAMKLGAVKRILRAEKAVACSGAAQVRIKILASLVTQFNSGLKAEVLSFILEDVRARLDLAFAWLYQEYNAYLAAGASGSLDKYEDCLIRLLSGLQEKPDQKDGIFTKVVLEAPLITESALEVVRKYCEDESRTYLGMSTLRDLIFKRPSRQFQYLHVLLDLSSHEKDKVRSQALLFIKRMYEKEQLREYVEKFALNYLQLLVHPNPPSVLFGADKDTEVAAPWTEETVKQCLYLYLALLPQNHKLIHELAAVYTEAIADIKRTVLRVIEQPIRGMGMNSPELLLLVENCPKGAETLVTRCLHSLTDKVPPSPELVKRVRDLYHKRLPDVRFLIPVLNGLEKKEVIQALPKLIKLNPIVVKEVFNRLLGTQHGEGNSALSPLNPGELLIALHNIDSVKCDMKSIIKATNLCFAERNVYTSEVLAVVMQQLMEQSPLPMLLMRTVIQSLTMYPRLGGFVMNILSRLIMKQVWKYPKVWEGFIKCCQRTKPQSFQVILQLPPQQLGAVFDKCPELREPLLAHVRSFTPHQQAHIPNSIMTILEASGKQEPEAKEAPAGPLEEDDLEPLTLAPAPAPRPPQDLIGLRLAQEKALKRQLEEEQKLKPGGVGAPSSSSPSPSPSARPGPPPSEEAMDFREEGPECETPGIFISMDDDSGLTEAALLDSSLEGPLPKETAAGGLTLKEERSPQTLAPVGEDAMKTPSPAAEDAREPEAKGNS
UniProt Q969E8: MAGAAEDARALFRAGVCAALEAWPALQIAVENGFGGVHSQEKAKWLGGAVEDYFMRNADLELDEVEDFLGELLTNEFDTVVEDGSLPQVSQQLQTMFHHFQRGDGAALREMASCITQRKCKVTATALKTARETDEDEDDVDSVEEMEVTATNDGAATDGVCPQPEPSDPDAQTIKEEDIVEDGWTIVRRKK
UniProt Q96EK5: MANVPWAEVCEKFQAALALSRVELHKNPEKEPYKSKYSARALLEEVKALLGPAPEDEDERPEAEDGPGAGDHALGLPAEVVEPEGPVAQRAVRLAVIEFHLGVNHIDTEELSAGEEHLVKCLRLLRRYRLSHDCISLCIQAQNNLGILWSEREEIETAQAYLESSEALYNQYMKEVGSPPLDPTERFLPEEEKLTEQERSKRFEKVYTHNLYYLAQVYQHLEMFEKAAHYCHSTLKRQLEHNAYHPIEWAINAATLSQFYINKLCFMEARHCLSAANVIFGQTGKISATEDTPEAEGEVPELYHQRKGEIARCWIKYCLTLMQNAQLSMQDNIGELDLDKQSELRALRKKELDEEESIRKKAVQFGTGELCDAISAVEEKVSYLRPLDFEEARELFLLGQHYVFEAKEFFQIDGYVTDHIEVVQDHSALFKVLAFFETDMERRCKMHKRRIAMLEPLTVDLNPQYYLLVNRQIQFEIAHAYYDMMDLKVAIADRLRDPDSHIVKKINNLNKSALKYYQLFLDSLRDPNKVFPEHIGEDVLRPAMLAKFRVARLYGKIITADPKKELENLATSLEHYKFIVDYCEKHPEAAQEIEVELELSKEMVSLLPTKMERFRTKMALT
UniProt Q96BZ8: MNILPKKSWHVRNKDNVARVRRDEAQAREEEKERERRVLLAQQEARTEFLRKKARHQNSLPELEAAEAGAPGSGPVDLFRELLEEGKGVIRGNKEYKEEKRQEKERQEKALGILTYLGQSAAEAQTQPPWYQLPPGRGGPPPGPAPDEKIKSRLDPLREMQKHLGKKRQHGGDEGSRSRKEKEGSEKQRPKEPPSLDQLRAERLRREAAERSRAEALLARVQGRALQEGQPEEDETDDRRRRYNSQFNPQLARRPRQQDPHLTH
UniProt Q96AH0: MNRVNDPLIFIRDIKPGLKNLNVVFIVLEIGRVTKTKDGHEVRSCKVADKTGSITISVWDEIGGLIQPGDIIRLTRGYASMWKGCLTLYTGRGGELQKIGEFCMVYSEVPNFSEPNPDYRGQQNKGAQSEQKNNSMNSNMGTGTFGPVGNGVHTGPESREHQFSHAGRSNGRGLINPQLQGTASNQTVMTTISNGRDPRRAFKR

The list shows a part of the results. Most entries show no effect beyond the scatter of the controls.

Compound in the experiment: Cc1nc(Nc2ncc(C(=O)Nc3c(C)cccc3Cl)s2)cc(N2CCN(CCO)CC2)n1 [dasatinib]
The experiment can be described thus: log2 fold change of tryptic peptide abundance, ligand vs vehicle (limited proteolysis) (log2 ratio); higher = more trypsin-susceptible (destabilized). To be noted: ligand concentration: 5 uM; sample: K562 cleared lysate.
As for “DPF1 (peptide sequence: LNILEDPR, peptide start residue: 84) (UniProt Q92782)”, the log2 fold change stood at 0.245. In the case of “MED12 (peptide sequence: QKEDELTALNVK, peptide start residue: 31) (UniProt Q93074)” it was -0.27. In the case of “MTMR8 (peptide sequence: THSVWPFLVQR, peptide start residue: 456) (UniProt Q96EF0)” it was -0.732; in that of “CLP1 (peptide sequence: TEVAYVSK, peptide start residue: 79) (UniProt Q92989)”, -0.221. As to “ARL8A (peptide sequence: LWDIGGQPR, peptide start residue: 69) (UniProt Q96BM9)”, the log2 fold change is -0.0817. In the case of “AIDA (peptide sequence: EAQAQHNNSEFTEEQKK, peptide start residue: 45) (UniProt Q96BJ3)” it was 0.124. In the case of “SYMPK (peptide sequence: CLHSLTDKVPPSPELVK, peptide start residue: 859) (UniProt Q92797)” it was -0.661; in that of “TSR2 (peptide sequence: EEDIVEDGWTIVRR, peptide start residue: 176) (UniProt Q969E8)”, -0.324; in that of “UniProt Q96EK5 (peptide sequence: AAHYCHSTLKR, peptide start residue: 227)”, -0.684.

Consider “LENG1 (peptide sequence: GGPPPGPAPDEK, peptide start residue: 138) (UniProt Q96BZ8)”, for which the log2 fold change was -0.102. In the case of “NABP1 (peptide sequence: EHQFSHAGR, peptide start residue: 160) (UniProt Q96AH0)” it was -0.32.
